{"sequences": {"note": "Amino acid sequences for entries named in this document (tags omitted). A change or cut given only in a name is not applied to a line headed by its entry.", "UniProt P18054": "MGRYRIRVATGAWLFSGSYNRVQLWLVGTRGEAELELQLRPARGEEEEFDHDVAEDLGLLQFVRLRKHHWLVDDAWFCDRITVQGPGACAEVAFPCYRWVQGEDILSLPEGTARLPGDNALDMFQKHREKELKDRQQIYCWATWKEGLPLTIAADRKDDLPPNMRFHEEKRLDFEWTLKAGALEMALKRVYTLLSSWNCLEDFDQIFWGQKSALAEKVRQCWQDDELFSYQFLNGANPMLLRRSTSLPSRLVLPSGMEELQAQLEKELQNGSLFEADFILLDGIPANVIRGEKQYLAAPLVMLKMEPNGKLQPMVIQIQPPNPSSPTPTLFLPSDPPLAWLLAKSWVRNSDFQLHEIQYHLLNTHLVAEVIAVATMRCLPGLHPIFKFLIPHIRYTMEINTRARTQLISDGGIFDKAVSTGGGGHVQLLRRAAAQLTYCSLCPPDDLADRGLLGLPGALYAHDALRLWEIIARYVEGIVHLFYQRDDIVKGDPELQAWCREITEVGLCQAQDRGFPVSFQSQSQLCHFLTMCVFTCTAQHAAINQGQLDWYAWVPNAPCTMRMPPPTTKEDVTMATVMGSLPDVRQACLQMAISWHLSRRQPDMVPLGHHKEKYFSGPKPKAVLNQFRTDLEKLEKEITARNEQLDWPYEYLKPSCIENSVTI"}, "source": "PubChem BioAssay AID1671190", "about": "(National Center for Advancing Translational Sciences (NCATS), 2021)", "note": "Where “and” joins values, the source holds several entries; their conditions need not be identical. Equal entries are not always repeated. The whole screen tested about 580,000 compounds, of which about 6,100 (1.1%) were called active. The shares of active, inactive and inconclusive entries below differ from those in the screen. The call rests on the fitted dose curve; in most records, active means well fitted inhibition curve with a large enough effect; inconclusive means small, poorly fitted or top-dose-only effect, or another doubt; inactive means no such curve, though single readings can be large or run the other way. Where the call is inconclusive, the potency comes from a doubtful curve fit. On the % scale 0 is the no-effect control and ±100 the full control effect; potency means the concentration at half of the fitted maximal effect.", "data": [{"target": "Polyunsaturated fatty acid lipoxygenase ALOX12 (Homo sapiens) (UniProt P18054)", "assay": "Primary qHTS assay for inhibitors of human arachidonate 12S-lipoxygenase (ALOX12): Round 2", "settings": "purified 12hLO, xylenol orange hydroperoxide absorbance; activity change, negative = inhibition: at 108 µM (top of the series) unless noted", "how_it_was_run": "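Purified human 12hLO (150 nM final) in 25 mM Hepes, 0.01% Triton X-100, pH 7.0 was preincubated 15 min at room temperature with compound. Then 40 uM arachidonic acid was added, 30 min. Hydroperoxide was read by Fe-XO absorbance ratio 573/405 nm.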", "values": [{"smiles": "CN(CCCN1c2ccccc2CCc2ccccc21)CC(=O)c1ccc(Cl)cc1", "Potency": "inconclusive: 12.6 µM [inhibitor, partial curve, poor fit] and inconclusive: 35.5 µM [inhibitor, single point]"}, {"smiles": "Cc1cc2nnc(SC3CCCCN(C(=O)c4ccc(F)cc4)C3=O)n2c2ccccc12", "note": "(stereo unspecified)", "Potency": "inconclusive: 44.7 µM [inhibitor, partial curve, poor fit]"}, {"smiles": "Cc1ccccc1N1C(S)=C(C#N)C(=O)NC1c1ccco1", "note": "(stereo unspecified)", "Potency": "inconclusive: 44.7 µM [inhibitor, partial curve]"}, {"smiles": "NC(CSC(c1ccccc1)(c1ccccc1)c1ccc2c(c1)OCO2)C(=O)O", "note": "(stereo unspecified)", "Potency": "active: 12.6 µM"}, {"smiles": "CCOc1ccccc1NC(=O)CSc1ccc(-c2ccco2)nn1", "Potency": "inconclusive: 35.5 µM [inhibitor, single point]"}, {"smiles": "O=S(=O)(c1ccc(NC(=S)NC23CC4CC(CC(C4)C2)C3)cc1)N1CCCCC1", "Potency": "active: 44.7 µM"}, {"smiles": "C/C(CC(=O)Nc1cccc(Cl)c1Cl)=N\\NC(=O)C(=O)N1CCCC1", "activity change, negative = inhibition": "inactive: 0.972%"}, {"smiles": "CCCC(=O)Nc1nc(-c2ccc3c(c2)CCN3S(C)(=O)=O)cs1", "activity change, negative = inhibition": "inactive: -39.7%"}, {"smiles": "COC(=O)c1nc2cc(C)ccn2c1F", "Potency": "inconclusive: 100 µM [inhibitor, single point]"}, {"smiles": "COc1ccc(C(C)NC(=O)COc2ccc(NC(=O)C3CC3)cn2)cc1", "note": "(stereo unspecified)", "activity change, negative = inhibition": "inactive: 45%"}, {"smiles": "CC(=O)c1c(C)n([O-])c2cc(C)ccc2[n+]1=O", "Potency": "inconclusive: 28.2 µM [inhibitor, partial curve, poor fit] and inconclusive: 126 µM [inhibitor, single point]"}, {"smiles": "CCOc1ccc(S(=O)(=O)N2CCN(C(=S)NCc3ccccc3)CC2)cc1", "activity change, negative = inhibition": "inactive: 12.7%"}, {"smiles": "COc1ccc(CN(Cc2ccc(C(=O)O)cc2)C(=S)Nc2cccc(C)c2)cc1OC", "Potency": "inconclusive: 50.1 µM [inhibitor, partial curve, poor fit]"}, {"smiles": "CCOC(=O)c1cn(C)nc1S(=O)(=O)N1CCCCC1", "Potency": "inconclusive: 22.4 µM [inhibitor, single point]"}, {"smiles": "O=C(CSc1cnc2ccccc2n1)OCc1ccccc1", "activity change, negative = inhibition": "inactive: -6.95%"}, {"smiles": "NNc1ccc(NS(=O)(=O)c2ccc(Cl)cc2)cc1[N+](=O)[O-]", "Potency": "inconclusive: 5.62 µM [inhibitor, full curve, poor fit]"}, {"smiles": "Cc1cc2cc(CNC(=S)Nc3ccc(Br)cc3)ccc2[nH]1", "Potency": "inconclusive: 14.1 µM [inhibitor, full curve, poor fit]"}, {"smiles": "C[C@H]1CN([C@@H](C)CO)S(=O)(=O)c2ccc(C#CC3(O)CCCC3)cc2O[C@@H]1CN(C)C(=O)Cc1cccnc1", "activity change, negative = inhibition": "inactive: -12.3%"}, {"smiles": "COc1ccc(CCCC(=O)NC2CCCCC2C)c(C)c1", "note": "(stereo unspecified)", "Potency": "active: 8.91 µM"}, {"smiles": "CNC(=S)N/N=C/c1cn(Cc2ccc(F)cc2)c2ccccc12", "Potency": "active: 28.2 µM"}, {"smiles": "COc1cc(C2=NOC(C(=O)Nc3ccc(C)cc3)C2)cc(OC)c1OC", "note": "(stereo unspecified)", "activity change, negative = inhibition": "inactive: 6.71%"}, {"smiles": "O=C1NCCN2CC3(CCN(C(=O)Nc4ccccc4F)CC3)CC12", "note": "(stereo unspecified)", "activity change, negative = inhibition": "inactive: 142%"}, {"smiles": "CC(NC(=O)COC(=O)c1c[nH]c2ccccc12)c1ccccc1", "note": "(stereo unspecified)", "Potency": "inconclusive: 39.8 µM [inhibitor, partial curve, poor fit]"}, {"smiles": "Cc1c(CN2CCCC(CNC(=O)c3cccc4ccccc34)C2)[nH]c2ccccc12", "note": "(stereo unspecified)", "Potency": "inconclusive: 56.2 µM [inhibitor, partial curve, poor fit]"}, {"smiles": "CCOC(=O)C1=C(C)N=C2SC=C(CC(=O)N3CCCC3)N2C1c1ccc(Cl)cc1", "note": "(stereo unspecified)", "Potency": "inconclusive: 2.51 µM [inhibitor, full curve, poor fit]"}, {"smiles": "NC(=O)C(Sc1ncc(C(F)(F)F)cc1Cl)c1ccc(F)cc1", "note": "(stereo unspecified)", "Potency": "inconclusive: 89.1 µM [inhibitor, partial curve, poor fit]"}, {"smiles": "CN1CCN(CCOc2ccc3cc(-c4ccccc4)c(=O)oc3c2)CC1", "activity change, negative = inhibition": "inactive: 14%"}, {"smiles": "Cc1ccccc1CN(C)C(=O)CCc1nc2ccccc2s1", "activity change, negative = inhibition": "inactive: 4.37%"}, {"smiles": "COc1ccccc1-c1nnc2ccc(SCc3ccco3)nn12", "Potency": "inconclusive: 39.8 µM [inhibitor, partial curve, poor fit]"}, {"smiles": "O=C(Cc1c[nH]c2ccccc12)N1CCC(c2nc(C3CC3)n[nH]2)CC1", "activity change, negative = inhibition": "inactive: 31.5%"}, {"smiles": "CCC(CO)Oc1cc(NCc2ccccc2C)c2ncn(C(C)C)c2c1", "note": "(stereo unspecified)", "Potency": "inconclusive: 50.1 µM [inhibitor, partial curve, poor fit]"}, {"smiles": "Cc1ccc(S(=O)(=O)N2CCCCC2)cc1C(=O)NCC1CCCO1", "note": "(stereo unspecified)", "activity change, negative = inhibition": "inactive: 4.89%"}, {"smiles": "CCNC(=O)N[C@H]1C[C@@H](Cc2cc(CC(C)C)on2)C1(C)C", "Potency": "inconclusive: 7.08 µM [inhibitor, full curve]"}, {"smiles": "Cc1ccc(C(=O)N2CCOC(CN(Cc3ccco3)C(=O)c3ccc(F)cc3)C2)cc1", "note": "(stereo unspecified)", "activity change, negative = inhibition": "inactive: 28.3%"}, {"smiles": "COc1cc(C(C)=O)ccc1OCC(O)CN(C)Cc1sccc1C", "note": "(stereo unspecified)", "activity change, negative = inhibition": "inactive: -8.89%"}, {"smiles": "Cc1c(C#N)c(O)n(CCO)c(=O)c1N=Nc1ccc(S(N)(=O)=O)cc1", "Potency": "inconclusive: 35.5 µM [inhibitor, partial curve]"}, {"smiles": "CCCCN(C(=O)c1ccc(-c2ccc([N+](=O)[O-])cc2)o1)c1c(N)n(CC(C)C)c(=O)[nH]c1=O", "Potency": "inconclusive: 63.1 µM [inhibitor, partial curve, poor fit]"}, {"smiles": "NC(=O)c1nn(CC(=O)N2CCN(CC(=O)N3CCCCCC3)CC2)c(=O)c2ccccc12", "Potency": "inconclusive: 6.31 µM [inhibitor, full curve, poor fit]"}, {"smiles": "COC(=O)[C@H](Cc1c[nH]c2ccccc12)NCc1cccc(B(O)O)c1", "Potency": "inconclusive: 35.5 µM [inhibitor, partial curve, poor fit]"}, {"smiles": "Cc1cc(C)n(CCc2nc(-c3cccs3)cs2)n1", "Potency": "inconclusive: 39.8 µM [inhibitor, partial curve, poor fit]"}, {"smiles": "O=C1NC2=C(CCc3ccccc32)C(c2ccccc2)N1", "note": "(stereo unspecified)", "Potency": "inconclusive: 50.1 µM [inhibitor, partial curve, poor fit]"}, {"smiles": "O=C(c1ccccc1)c1cc2ccc(O)cc2oc1=O", "Potency": "inconclusive: 158 µM [inhibitor, partial curve, poor fit]"}, {"smiles": "COc1ccc(C(C)=O)cc1COc1ccc(C#N)cc1", "Potency": "inconclusive: 0.251 µM [inhibitor, full curve, poor fit]"}, {"smiles": "Cn1nc([N+](=O)[O-])nc1Sc1cccc2cccnc12", "activity change, negative = inhibition": "inactive: -25.5%"}, {"smiles": "CCOC(=O)c1nn(-c2ccc(C)cc2)c(=O)cc1OCC(=O)Nc1cc(C)ccc1OC", "Potency": "inconclusive: 70.8 µM [inhibitor, partial curve, poor fit]"}, {"smiles": "COc1ccc(CCN2C(=O)CSC2c2ccc(OC)c(OC)c2)cc1OC", "note": "(stereo unspecified)", "activity change, negative = inhibition": "inactive: -9.12%"}, {"smiles": "OCc1cccc(-c2ccc3ncc(Nc4ccc(OCCN5CCCC5)cc4)n3n2)c1", "activity change, negative = inhibition": "inactive: 20.2% [at 176 µM]"}, {"smiles": "CCCCC(=O)Nc1ccc(C)c(S(=O)(=O)N2CCCCCC2)c1", "activity change, negative = inhibition": "inactive: 465%"}, {"smiles": "Cc1ccc(C)c(N(C)S(=O)(=O)c2ccc3[nH]cc(C(=O)NCCN4CCOCC4)c(=O)c3c2)c1", "activity change, negative = inhibition": "inactive: 0.733%"}, {"smiles": "Cc1cccc(/C=N/n2c(-c3ccncc3)n[nH]c2=S)c1", "Potency": "inconclusive: 50.1 µM [inhibitor, partial curve]"}, {"smiles": "COCCNc1nc(-c2cccc(NS(C)(=O)=O)c2)nc2ccccc12", "Potency": "inconclusive: 12.6 µM [inhibitor, full curve, poor fit]"}, {"smiles": "COc1ccc(N2CCN(CCS(=O)(=O)c3cc(Cl)ccc3Cl)CC2)cc1", "activity change, negative = inhibition": "inactive: 165%"}, {"smiles": "C=CCNc1nc(-c2ccc(S(=O)(=O)N3CCOCC3)cc2)cs1", "Potency": "inconclusive: 44.7 µM [inhibitor, partial curve, poor fit]"}, {"smiles": "COc1cc(NC(=O)C(CC(C)C)N2Cc3ccccc3C2=O)cc(OC)c1", "note": "(stereo unspecified)", "Potency": "inconclusive: 126 µM [inhibitor, partial curve, poor fit]"}, {"smiles": "NS(=O)(=O)c1ccc(NC(=S)Nc2nn(Cc3ccc(Cl)cc3Cl)cc2Cl)cc1", "Potency": "inconclusive: 39.8 µM [inhibitor, partial curve, poor fit]"}, {"smiles": "CCO[C@H]1OC(C(=O)N2CCN(Cc3ccc4c(c3)OCO4)CC2)=C[C@@H](c2cn(C(C)=O)c3ccccc23)[C@@H]1CCCO", "Potency": "inconclusive: 89.1 µM [inhibitor, single point]"}, {"smiles": "O=[n+]1c2c(n([O-])c3cc(F)c(N4CCCC4)cc31)CCCC2", "Potency": "inconclusive: 35.5 µM [inhibitor, partial curve, poor fit]"}, {"smiles": "C[C@H]1c2cccc(O)c2C(O)=C2C(=O)[C@]3(O)C(O)=C(C(N)=O)C(=O)[C@@H](N(C)C)C3[C@@H](O)C21", "note": "(stereo partly specified)", "activity change, negative = inhibition": "inactive: -9.14%"}, {"smiles": "Cc1ccc(-c2cn3c(n2)N(C(=O)Cn2ccnc2C)CCC3)cc1", "activity change, negative = inhibition": "inactive: 55.9%"}, {"smiles": "CC(C)Cc1nc(NCCN)c(C#N)c2c1CCCC2", "Potency": "inconclusive: 39.8 µM [inhibitor, partial curve, poor fit]"}, {"smiles": "COc1cccc(C2CC(=O)N3CN(c4ccccc4F)CSC3=C2C#N)c1", "note": "(stereo unspecified)", "Potency": "active: 8.91 µM"}, {"smiles": "COc1ccccc1NS(=O)(=O)c1cc(NC(=S)Nc2cc(C)cc(C)c2)ccc1Cl", "Potency": "inconclusive: 50.1 µM [inhibitor, partial curve, poor fit]"}, {"smiles": "O=C(NC(=S)N(CCCCO)C1CCCCC1)c1sc2ccccc2c1Cl", "Potency": "inconclusive: 50.1 µM [inhibitor, partial curve, poor fit]"}, {"smiles": "COC(=O)[C@H](CC(C)C)N(CCc1cn(Cc2ccc(C)cc2)nn1)S(=O)(=O)c1ccccc1Br", "Potency": "inconclusive: 39.8 µM [inhibitor, single point]"}, {"smiles": "CC(=O)OCCN1C(=O)c2c(C)nc3ccc(S(=O)(=O)N4CCOCC4)cc3c2C1=O", "Potency": "inconclusive: 43.2 µM [inhibitor, single point]"}, {"smiles": "COc1cc2nc(-c3cc4c(c(OC)c3)OCCNC4)cc(C)c2cc1OC", "activity change, negative = inhibition": "inactive: 1.27%"}]}]}
